# The supplement of paper PMC6411743
# ± gives the standard deviation of the averaged measurements. The list shows a part of the results, in another mix than the full data.
# What was measured:
# Assay in all cases: NP40-soluble protein abundance relative to vehicle (solubility fold change) (ratio); higher = more soluble protein in presence of ATP
# [1] = biological target: T1, A0A087WUK6|A0A087WZT0|M0QZ22 and related entries (UniProt Q5PRF9)
# T1 sequence (whole entry): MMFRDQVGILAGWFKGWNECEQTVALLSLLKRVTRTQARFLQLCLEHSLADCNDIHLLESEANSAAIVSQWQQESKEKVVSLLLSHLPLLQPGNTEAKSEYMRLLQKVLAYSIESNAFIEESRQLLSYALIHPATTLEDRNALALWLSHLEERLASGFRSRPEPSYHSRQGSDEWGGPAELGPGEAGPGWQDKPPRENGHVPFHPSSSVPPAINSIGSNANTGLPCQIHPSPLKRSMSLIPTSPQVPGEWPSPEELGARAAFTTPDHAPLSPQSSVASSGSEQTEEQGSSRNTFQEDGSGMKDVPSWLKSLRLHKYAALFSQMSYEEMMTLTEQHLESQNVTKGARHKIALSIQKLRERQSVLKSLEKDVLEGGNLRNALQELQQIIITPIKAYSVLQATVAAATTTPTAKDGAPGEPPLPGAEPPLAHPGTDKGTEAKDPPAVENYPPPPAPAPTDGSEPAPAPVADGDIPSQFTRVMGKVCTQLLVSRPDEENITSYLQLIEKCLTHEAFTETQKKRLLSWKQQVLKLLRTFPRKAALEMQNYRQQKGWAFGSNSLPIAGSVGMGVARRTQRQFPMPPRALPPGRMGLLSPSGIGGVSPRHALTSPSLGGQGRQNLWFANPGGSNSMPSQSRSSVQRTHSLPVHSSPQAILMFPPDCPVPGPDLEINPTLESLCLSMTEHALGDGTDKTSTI
# Method in brief: (§1)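 In three independent experiments, Jurkat crude lysate made by Dounce homogenisation was treated for 10 min at room temperature and then 3 min at 37 °C with eight concentrations ranging from 0.1 to 10 mM. It was then solubilised with 0.8% NP40 plus benzonase for 60 min at 4 °C and ultracentrifuged. The supernatant was TMT-labelled for LC-MS/MS, and each value is the fold change against the detergent-processed vehicle for the same replicate, using vsn-normalised intensities.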
# [2] = biological target: T2, A0A087WVU5|O00512 (UniProt O00512)
# T2 sequence (whole entry): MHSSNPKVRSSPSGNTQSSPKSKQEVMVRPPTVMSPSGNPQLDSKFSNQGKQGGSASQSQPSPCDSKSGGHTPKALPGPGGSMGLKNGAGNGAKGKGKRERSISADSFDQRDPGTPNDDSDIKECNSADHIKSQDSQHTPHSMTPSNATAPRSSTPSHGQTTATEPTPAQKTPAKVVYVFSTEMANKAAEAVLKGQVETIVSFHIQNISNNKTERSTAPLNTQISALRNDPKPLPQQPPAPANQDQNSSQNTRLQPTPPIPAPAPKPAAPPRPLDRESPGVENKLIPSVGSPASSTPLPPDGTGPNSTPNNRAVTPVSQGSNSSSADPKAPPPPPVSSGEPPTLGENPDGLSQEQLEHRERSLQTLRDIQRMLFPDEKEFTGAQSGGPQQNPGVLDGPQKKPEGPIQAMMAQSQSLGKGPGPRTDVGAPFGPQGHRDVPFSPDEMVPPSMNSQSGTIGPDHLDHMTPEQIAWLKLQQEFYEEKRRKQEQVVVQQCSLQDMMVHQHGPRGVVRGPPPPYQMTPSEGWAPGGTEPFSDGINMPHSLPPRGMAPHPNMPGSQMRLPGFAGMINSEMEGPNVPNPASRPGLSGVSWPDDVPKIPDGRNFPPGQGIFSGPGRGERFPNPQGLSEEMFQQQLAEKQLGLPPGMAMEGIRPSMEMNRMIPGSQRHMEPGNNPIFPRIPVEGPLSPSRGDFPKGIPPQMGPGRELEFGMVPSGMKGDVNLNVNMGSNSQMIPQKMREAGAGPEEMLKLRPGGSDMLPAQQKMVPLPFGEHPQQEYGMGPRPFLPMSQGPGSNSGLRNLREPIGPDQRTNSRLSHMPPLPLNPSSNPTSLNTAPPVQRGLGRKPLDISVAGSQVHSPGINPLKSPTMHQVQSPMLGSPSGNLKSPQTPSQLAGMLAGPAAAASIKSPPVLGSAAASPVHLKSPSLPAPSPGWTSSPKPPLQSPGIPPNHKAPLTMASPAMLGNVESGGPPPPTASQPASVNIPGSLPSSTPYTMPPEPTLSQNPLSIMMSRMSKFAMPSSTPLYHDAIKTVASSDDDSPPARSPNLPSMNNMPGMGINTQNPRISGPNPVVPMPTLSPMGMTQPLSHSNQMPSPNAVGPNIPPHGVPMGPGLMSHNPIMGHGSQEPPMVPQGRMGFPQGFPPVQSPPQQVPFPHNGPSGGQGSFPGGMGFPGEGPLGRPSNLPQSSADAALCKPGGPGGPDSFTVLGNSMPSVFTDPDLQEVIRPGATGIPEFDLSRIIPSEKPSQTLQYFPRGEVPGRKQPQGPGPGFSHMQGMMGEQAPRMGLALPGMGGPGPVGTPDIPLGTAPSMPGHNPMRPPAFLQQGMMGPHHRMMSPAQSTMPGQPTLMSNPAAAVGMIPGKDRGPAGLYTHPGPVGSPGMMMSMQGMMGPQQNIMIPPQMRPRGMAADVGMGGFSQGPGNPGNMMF
# Method in brief: as §1
# [3] = biological target: T3, A0A087WVZ0|Q9Y5U8 (UniProt Q9Y5U8)
# T3 sequence (whole entry): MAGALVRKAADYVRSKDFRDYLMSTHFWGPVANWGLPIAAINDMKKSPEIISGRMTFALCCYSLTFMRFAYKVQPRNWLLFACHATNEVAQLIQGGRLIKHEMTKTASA
# Method in brief: as §1
# [4] = biological target: T4, A0A087WWU1|Q96Q45 and related entries (UniProt Q96Q45)
# T4 sequence (whole entry): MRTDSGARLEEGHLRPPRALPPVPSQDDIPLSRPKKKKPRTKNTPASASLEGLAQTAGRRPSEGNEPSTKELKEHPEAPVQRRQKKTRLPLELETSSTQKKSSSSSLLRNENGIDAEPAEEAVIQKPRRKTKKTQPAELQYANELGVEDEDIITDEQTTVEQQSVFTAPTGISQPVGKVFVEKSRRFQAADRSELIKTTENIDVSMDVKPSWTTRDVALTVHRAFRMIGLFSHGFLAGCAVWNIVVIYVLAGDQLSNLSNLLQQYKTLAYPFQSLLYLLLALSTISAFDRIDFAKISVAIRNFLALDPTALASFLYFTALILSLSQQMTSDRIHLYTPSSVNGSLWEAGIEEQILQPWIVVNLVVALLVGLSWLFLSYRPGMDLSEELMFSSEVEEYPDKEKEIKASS
# Method in brief: as §1
# [5] = biological target: T5, A0A087WXF8|A0A087WXU5|A0A087WYF0|A0A0D9SEW3|Q9NP64 and related entries (UniProt Q9NP64)
# T5 sequence (whole entry): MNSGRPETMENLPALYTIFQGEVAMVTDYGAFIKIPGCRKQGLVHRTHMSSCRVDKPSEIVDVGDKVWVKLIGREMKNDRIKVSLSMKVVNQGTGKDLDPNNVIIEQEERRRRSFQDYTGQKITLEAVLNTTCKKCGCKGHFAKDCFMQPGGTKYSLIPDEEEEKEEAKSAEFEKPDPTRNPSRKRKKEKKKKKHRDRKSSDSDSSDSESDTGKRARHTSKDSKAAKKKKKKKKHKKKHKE
# Method in brief: as §1
# [6] = biological target: T6, A0A087WXR2|F5H1Z6 and related entries (UniProt Q9Y365)
# T6 sequence (whole entry): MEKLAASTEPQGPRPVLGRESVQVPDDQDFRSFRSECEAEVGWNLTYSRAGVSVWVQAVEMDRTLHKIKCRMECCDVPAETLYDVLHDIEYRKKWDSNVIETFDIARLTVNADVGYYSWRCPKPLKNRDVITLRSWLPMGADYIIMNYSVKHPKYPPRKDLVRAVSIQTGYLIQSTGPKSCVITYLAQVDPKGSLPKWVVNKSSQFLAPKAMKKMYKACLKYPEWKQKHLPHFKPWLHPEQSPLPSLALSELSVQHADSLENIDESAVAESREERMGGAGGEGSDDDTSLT
# Method in brief: as §1
# [7] = biological target: T7, A0A087X0R6|Q9UMY4 and related entries (UniProt Q9UMY4)
# T7 sequence (whole entry): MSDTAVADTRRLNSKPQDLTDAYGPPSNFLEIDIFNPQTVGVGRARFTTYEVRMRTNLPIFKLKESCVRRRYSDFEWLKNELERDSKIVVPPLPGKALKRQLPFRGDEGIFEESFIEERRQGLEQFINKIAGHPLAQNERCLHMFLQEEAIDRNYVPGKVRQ
# Method in brief: as §1
# [8] = biological target: T8, A0A087X1S7|P09326 (UniProt P09326)
# T8 sequence (whole entry): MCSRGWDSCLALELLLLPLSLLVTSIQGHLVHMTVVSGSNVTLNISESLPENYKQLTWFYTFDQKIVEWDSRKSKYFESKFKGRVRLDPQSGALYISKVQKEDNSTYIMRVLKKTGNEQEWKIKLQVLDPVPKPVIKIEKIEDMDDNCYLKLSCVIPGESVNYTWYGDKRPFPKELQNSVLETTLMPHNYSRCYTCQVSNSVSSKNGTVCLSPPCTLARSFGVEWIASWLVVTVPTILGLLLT
# Method in brief: as §1
# [9] = biological target: T9, A0A0A0MRK6|Q13505 and related entries (UniProt Q13505)
# T9 sequence (whole entry): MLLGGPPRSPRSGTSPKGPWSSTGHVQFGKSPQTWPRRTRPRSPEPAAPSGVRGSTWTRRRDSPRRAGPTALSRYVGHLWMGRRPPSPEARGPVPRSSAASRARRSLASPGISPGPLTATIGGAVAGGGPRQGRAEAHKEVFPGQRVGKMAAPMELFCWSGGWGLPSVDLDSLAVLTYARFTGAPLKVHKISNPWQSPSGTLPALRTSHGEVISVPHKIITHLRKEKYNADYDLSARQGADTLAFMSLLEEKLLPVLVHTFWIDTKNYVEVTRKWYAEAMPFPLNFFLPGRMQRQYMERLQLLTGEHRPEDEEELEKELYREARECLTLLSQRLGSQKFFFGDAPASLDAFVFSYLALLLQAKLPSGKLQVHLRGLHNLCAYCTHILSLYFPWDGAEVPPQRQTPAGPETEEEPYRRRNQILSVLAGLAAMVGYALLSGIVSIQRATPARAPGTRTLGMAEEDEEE
# Method in brief: as §1
smiles,measurement,setting,value
Nc1ncnc2c1ncn2[C@@H]1O[C@H](COP(=O)(O)OP(=O)(O)OP(=O)(O)O)[C@@H](O)[C@H]1O [adenosine triphosphate],NP40-soluble protein abundance,[1]; concentration: 1mM,0.99 ± 0.075
same,NP40-soluble protein abundance,[1]; concentration: 2mM,1.01 ± 0.076
same,NP40-soluble protein abundance,[1]; concentration: 4mM,1.06 ± 0.043
same,NP40-soluble protein abundance,[1]; concentration: 6mM,1.03 ± 0.11
same,NP40-soluble protein abundance,[1]; concentration: 8mM,1.02 ± 0.05
same,NP40-soluble protein abundance,[1]; concentration: 10mM,1.04 ± 0.095
same,NP40-soluble protein abundance,[2]; concentration: 1mM,0.973 ± 0.06
same,NP40-soluble protein abundance,[2]; concentration: 2mM,0.972 ± 0.13
same,NP40-soluble protein abundance,[2]; concentration: 4mM,0.917 ± 0.043
same,NP40-soluble protein abundance,[2]; concentration: 6mM,0.944 ± 0.073
same,NP40-soluble protein abundance,[2]; concentration: 8mM,0.92 ± 0.048
same,NP40-soluble protein abundance,[2]; concentration: 10mM,0.921 ± 0.046
same,NP40-soluble protein abundance,[3]; concentration: 1mM,1 ± 0.2
same,NP40-soluble protein abundance,[3]; concentration: 2mM,1.01 ± 0.17
same,NP40-soluble protein abundance,[3]; concentration: 4mM,0.961 ± 0.1
same,NP40-soluble protein abundance,[3]; concentration: 6mM,0.913 ± 0.088
same,NP40-soluble protein abundance,[3]; concentration: 8mM,0.902 ± 0.022
same,NP40-soluble protein abundance,[3]; concentration: 10mM,0.952 ± 0.12
same,NP40-soluble protein abundance,[4]; concentration: 1mM,0.982 ± 0.097
same,NP40-soluble protein abundance,[4]; concentration: 2mM,1.02 ± 0.013
same,NP40-soluble protein abundance,[4]; concentration: 4mM,1.05 ± 0.059
same,NP40-soluble protein abundance,[4]; concentration: 6mM,1.06 ± 0.044
same,NP40-soluble protein abundance,[4]; concentration: 8mM,1.01 ± 0.061
same,NP40-soluble protein abundance,[4]; concentration: 10mM,0.973 ± 0.026
same,NP40-soluble protein abundance,[5]; concentration: 1mM,0.92 ± 0.018
same,NP40-soluble protein abundance,[5]; concentration: 2mM,0.881 ± 0.018
same,NP40-soluble protein abundance,[5]; concentration: 4mM,0.871 ± 0.032
same,NP40-soluble protein abundance,[5]; concentration: 6mM,0.8248 ± 0.0033
same,NP40-soluble protein abundance,[5]; concentration: 8mM,0.864 ± 0.024
same,NP40-soluble protein abundance,[5]; concentration: 10mM,0.8762 ± 0.003
same,NP40-soluble protein abundance,[6]; concentration: 1mM,0.996 ± 0.1
same,NP40-soluble protein abundance,[6]; concentration: 2mM,1.01 ± 0.06
same,NP40-soluble protein abundance,[6]; concentration: 4mM,1.09 ± 0.073
same,NP40-soluble protein abundance,[6]; concentration: 6mM,0.97 ± 0.051
same,NP40-soluble protein abundance,[6]; concentration: 8mM,1.03 ± 0.081
same,NP40-soluble protein abundance,[6]; concentration: 10mM,1.07 ± 0.077
same,NP40-soluble protein abundance,[7]; concentration: 1mM,0.969 ± 0.074
same,NP40-soluble protein abundance,[7]; concentration: 2mM,0.959 ± 0.039
same,NP40-soluble protein abundance,[7]; concentration: 4mM,0.934 ± 0.053
same,NP40-soluble protein abundance,[7]; concentration: 6mM,0.935 ± 0.018
same,NP40-soluble protein abundance,[7]; concentration: 8mM,0.971 ± 0.031
same,NP40-soluble protein abundance,[7]; concentration: 10mM,0.908 ± 0.042
same,NP40-soluble protein abundance,[8]; concentration: 1mM,0.935 ± 0.12
same,NP40-soluble protein abundance,[8]; concentration: 2mM,0.931 ± 0.034
same,NP40-soluble protein abundance,[8]; concentration: 4mM,0.922 ± 0.039
same,NP40-soluble protein abundance,[8]; concentration: 6mM,0.961 ± 0.073
same,NP40-soluble protein abundance,[8]; concentration: 8mM,0.899 ± 0.025
same,NP40-soluble protein abundance,[8]; concentration: 10mM,0.84 ± 0.06
same,NP40-soluble protein abundance,[9]; concentration: 1mM,1.03 ± 0.097
same,NP40-soluble protein abundance,[9]; concentration: 2mM,1.03 ± 0.11
same,NP40-soluble protein abundance,[9]; concentration: 4mM,0.998 ± 0.1
same,NP40-soluble protein abundance,[9]; concentration: 6mM,0.952 ± 0.13
same,NP40-soluble protein abundance,[9]; concentration: 8mM,1.01 ± 0.096
same,NP40-soluble protein abundance,[9]; concentration: 10mM,0.98 ± 0.098

# Retrieved one by one from the list above:
smiles,measurement,setting,value
Nc1ncnc2c1ncn2[C@@H]1O[C@H](COP(=O)(O)OP(=O)(O)OP(=O)(O)O)[C@@H](O)[C@H]1O [adenosine triphosphate],NP40-soluble protein abundance,[2]; concentration: 2mM,0.972 ± 0.13
same,NP40-soluble protein abundance,[6]; concentration: 8mM,1.03 ± 0.081
same,NP40-soluble protein abundance,[7]; concentration: 4mM,0.934 ± 0.053
